Results from paper PMC12436307.
No constants are given. Whether binding was seen depends on the method and setting. Some results given as binding are weak or reduced against the parent protein; the word gives no strength.

Target: T1, LONESOME HIGHWAY (LHW) (Arabidopsis thaliana) (UniProt Q9XIN0)
T1 sequence: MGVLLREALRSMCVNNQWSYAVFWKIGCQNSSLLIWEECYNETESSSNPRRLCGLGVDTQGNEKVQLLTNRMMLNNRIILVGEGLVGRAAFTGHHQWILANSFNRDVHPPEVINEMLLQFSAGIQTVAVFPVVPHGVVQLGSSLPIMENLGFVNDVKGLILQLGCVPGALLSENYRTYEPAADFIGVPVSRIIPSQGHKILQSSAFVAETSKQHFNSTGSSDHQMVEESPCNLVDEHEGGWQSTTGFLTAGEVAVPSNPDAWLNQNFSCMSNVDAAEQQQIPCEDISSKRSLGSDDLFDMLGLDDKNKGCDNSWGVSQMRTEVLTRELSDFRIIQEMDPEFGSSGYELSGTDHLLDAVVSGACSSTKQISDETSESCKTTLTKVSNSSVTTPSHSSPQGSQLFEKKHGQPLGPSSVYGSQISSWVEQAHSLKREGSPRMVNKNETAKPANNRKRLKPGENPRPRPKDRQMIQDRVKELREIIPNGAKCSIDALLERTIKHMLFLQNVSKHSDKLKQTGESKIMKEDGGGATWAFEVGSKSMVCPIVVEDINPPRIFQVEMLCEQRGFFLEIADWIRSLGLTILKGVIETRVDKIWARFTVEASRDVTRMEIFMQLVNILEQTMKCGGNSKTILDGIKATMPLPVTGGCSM
Assay: two-hybrid; Matchmaker Gold Yeast Two-Hybrid System; pGADT7 and pGBKT7 fusions; growth on SD -Leu -Trp -His -Ade with 3 mM 3AT, 30°C for 3 days

B1: SAC51 (protein, UniProt Q9FMF4 1-348)
chain: MPLDKRQRDLPLGLSPQACFKDIVGRSVLPRIPLPELGKLYAAKLQARCLQPPPFQSLLCSHDKESYGKRFSRSDMRSWCAAATTTTTPLGALESSQKRLLIFDQSGDQTRLLQCPFPLRFPSHAAAEPVKLSELQGIEKAFKEDGEEFHKSDGTESEMHEDTEEINALLYSDDDYDDDCESDDEVMSTGHSPYPNEGVCNKRELEEIDGPCKRQKLLDKVNNISDLSSLVGTESSTQLNGSSFLKDKKLPESKTISTKEDTGSGLSNEQSKKDKIRTALKILESVVPGAKGNEALLLLDEAIDYLKLLKRDLISTEVKNQSSTTHKSPILLLKETTWGTRNLQTDKA
  binding: binds
